Drawing on patent publication US20160159879A1 (UNIVERSITY OF NORTH CAROLINA AT CHAPEL HILL, published 2016), this text covers binding for 1 molecule.

Sequences of proteins named here, by UniProt entry; tags and fusion partners are left off. A change or cut given only in a name is not applied to a line headed by its entry.
UniProt P37089: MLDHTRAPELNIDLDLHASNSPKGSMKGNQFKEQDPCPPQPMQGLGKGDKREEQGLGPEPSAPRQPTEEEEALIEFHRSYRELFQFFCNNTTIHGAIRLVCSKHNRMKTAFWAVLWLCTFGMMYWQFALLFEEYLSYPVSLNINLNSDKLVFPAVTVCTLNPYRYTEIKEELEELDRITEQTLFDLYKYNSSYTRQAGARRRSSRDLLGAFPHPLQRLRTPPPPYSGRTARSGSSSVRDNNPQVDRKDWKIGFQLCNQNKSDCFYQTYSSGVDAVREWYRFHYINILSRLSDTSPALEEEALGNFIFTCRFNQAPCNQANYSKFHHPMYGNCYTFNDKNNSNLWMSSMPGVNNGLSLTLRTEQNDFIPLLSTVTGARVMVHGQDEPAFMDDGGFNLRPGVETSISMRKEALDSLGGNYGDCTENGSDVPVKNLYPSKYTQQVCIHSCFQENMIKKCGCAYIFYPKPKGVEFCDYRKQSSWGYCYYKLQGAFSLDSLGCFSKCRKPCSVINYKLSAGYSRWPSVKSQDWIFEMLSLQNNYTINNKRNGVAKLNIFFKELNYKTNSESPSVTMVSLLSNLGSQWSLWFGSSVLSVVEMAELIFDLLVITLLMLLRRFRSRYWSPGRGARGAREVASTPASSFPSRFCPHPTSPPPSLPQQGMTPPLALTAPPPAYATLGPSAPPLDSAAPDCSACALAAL
UniProt P37090: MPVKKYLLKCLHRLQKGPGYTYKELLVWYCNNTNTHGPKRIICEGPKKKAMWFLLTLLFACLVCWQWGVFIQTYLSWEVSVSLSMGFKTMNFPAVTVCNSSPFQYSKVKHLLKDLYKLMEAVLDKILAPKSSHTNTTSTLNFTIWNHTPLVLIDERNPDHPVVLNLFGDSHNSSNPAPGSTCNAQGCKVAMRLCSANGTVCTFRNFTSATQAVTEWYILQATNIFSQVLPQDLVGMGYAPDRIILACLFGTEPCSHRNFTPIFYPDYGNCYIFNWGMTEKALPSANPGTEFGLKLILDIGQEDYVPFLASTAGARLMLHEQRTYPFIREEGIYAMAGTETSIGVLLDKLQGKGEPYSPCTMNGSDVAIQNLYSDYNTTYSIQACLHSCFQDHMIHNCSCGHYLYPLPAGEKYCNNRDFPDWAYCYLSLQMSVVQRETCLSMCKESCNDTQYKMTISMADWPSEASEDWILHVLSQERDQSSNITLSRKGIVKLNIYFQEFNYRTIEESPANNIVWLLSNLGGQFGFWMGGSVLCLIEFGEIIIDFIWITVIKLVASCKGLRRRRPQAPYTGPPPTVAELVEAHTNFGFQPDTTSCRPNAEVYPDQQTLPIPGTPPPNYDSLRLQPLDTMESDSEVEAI
UniProt P37091: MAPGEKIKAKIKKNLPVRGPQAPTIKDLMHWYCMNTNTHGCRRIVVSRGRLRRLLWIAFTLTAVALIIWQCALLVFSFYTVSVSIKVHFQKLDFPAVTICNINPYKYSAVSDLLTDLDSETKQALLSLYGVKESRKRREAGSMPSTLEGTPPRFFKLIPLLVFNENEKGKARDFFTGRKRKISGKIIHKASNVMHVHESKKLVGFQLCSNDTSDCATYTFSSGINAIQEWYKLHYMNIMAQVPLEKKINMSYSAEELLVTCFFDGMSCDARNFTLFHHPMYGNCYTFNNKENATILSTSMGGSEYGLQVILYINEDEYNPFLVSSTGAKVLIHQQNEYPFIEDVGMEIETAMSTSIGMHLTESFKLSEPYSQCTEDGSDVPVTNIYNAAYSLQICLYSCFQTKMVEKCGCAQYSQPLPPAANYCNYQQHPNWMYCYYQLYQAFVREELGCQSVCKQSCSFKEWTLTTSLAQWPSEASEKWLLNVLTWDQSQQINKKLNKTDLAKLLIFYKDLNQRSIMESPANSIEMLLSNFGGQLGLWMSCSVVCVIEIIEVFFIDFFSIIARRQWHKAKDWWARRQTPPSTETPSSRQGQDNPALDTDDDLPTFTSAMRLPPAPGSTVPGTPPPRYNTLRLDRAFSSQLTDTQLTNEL

The test has as its target αβγENaC expressed in Xenopus laevis oocytes (rat) (UniProt P37089+P37090+P37091). Briefly: co-immunoprecipitation from oocyte lysates, anti-HA pull-down, anti-V5 blot.

These are yes or no findings as the source states them, for the method shown. In cells and extracts the contact can be indirect. Some binding calls cover weakened binding; strength is not graded here. Tags and fused reporters may be left off the sequences shown.

B1: V5-tagged SPLUNC1 expressed in Xenopus oocytes from injected cRNA (other, not shown: small tags and cut ends)
chain: QFGGLPVPLDQTLPLNVNPALPLSPTGLAGSLTNALSNGLLSGGLLGILENLPLLDILKPGGGTSGGLLGGLLGKVTSVIPGLNNIIDIKVTDPQLLELGLVQSPDGHRLYVTIPLGIKLQVNTPLVGASLLRLAVKLDITAEILAVRDKQERIHLVLGDCTHSPGSLQISLLDGLGPLPIQGLLDSLTGILNKVLPELVQGNVCPLVNEVLRGLDITLVHDIVNMLIHGLQFVIKV
B1: the binding result is “binds”.
